The values that follow come from publication PMC4911038.

These are yes or no findings as the source states them, for the method shown. Some entries that bind do so weakly or less than the wild type.

This assay addresses T1, SmATG12 (Sordaria macrospora autophagy-associated ubiquitin-like protein ATG12) (Sordaria macrospora) (UniProt F7W503).
T1 sequence: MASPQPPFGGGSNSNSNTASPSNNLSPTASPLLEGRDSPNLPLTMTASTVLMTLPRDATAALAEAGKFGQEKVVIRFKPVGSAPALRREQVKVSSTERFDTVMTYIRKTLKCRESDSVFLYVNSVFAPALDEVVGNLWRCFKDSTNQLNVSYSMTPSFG
Kind of assay: two-hybrid; GAL4 system: BD baits (pGBKT7 derivatives) in strain Y187 mated with AD preys (pGADT7 derivatives) in strain AH109, or both plasmids co-transformed into AH109; interaction read as growth on SD -Trp -Leu -His/-Ade; serial dilutions; 30°C, 3-5 days.

B1: SmATG3 (Sordaria macrospora E2-like enzyme ATG3) (enzyme, UniProt F7VSU2 1-346)
chain: MNFLRSTAATLLDKYTPVSHTSTFRNTGQITPEEFVAAGDYLTFKFPSWSWADADSPSKRLTFLPAGKQFLVTRHVPCHRRLNNDFAGDAGHEEALVEGNKGGDDDDGWLRTGSMTSSQPLRVREVRNIDDAGNVGDREVVDEDDIPDMEDDDDDEAIIRAEGDNSNSGKRTYTLYITYANAYKCPRMYMSGYLANGQPLPPHLMMEDIVGDYKDKTVTLEDFPFFSHSVKMASVHPCRHASVMKTLLDRADAALKLRREKMKAGQGSGSEQGMEGLVDEINKLDVSGAHANAVEAAPGEDAEWEEVPHDVTDQEVAIRVDQYLVVFLKFIASVTPGIEHDFTMGV
B1: the binding entry is “binds”.
